Test results reported in PMC10163288.
Some of the results follow.

B1: il2ra_site1_1z92_sap_20_mot_HHH_b1_00285_000000009_0001_24_39_H_._HHH_b1_00621_0001_0000100001_0000001_0_0001 (protein)
chain: DVEEELRELAKELGLPPEELEELLERLERRSDAPPEVALRHLLIVLKLAGSAETVKRFVEKLEKS
B2: il2ra_site2_2erj_normal_mot_HHH_b2_04899_000000077_0001_20_36_H_._HHH_b1_07730_0001_0000100001_0000001_0 (protein)
chain: SSSSDVEERVEELLREAEELLERGNPEEAFVVLSEASHIAARNDNPELLRLLLELHEQIFSSSSS
B3: il2ra_site2_2erj_sap_18_mot_e3be008b04150b5953e9f850c9479793_0001_000000253_0001_15_29_H_._HHH_b2_07896_0001_0000300037_0000001_1_0001_af2pred_0001_1_af2pred_sw … (protein)
chain: SSSSSSEAEELVEELVEELNLSEELKKLLEEIAKLLEESGYNEELAREHLKLAVENLEESSSSSS
B4: il2ra_site2_2erj_normal_mot_HHH_b2_01275_af2_000000073_0001_23_39_H_._HHH_b2_07286_0001_0000200028_0000001_0 (protein)
chain: SSSSDEEERRVRELLEEAEELHERGNLEEVYKLAVEALHVASEAGDQELQREIAKFVEELSSSSS
B5: il2ra_site2_3nfp_sap_13_mot_HHH_b1_06788_af2_000000115_0001_19_36_H_._HHH_b1_05865_0001_0000300012_0000001_1_0001 (protein)
chain: SSSSDEERVRELLERAEELLERGNPEEARKLLAEAAHVAWEANNPELFMAVAEFLFRHAQSSSSS
B6: il2ra_site1_2b5i_normal_mot_HHH_b2_06557_000000121_0001_42_56_H_._HHH_b2_02609_af2_0001_0000300044_0000001_0 (protein)
chain: SSSSDEVHERVDELNNQAARAYKNGNPEEAKELIEEALELAEENNDERLAEQLKEYLRFVSSSSS
B7: il2ra_site1_2b5i_sap_15_mot_f5ff40796168375b462bec8614a1db4a_0001_1_000000138_0001_53_65_H_._HHH_b1_00174_af2_0001_0000300025_0000001_0_0001_af2pred_dldesign_0_ … (protein)
chain: SSSSCPDHVEARRLLLEADALRQAGREEEAAEVLARLGALAAASGCPLVRKLYAELQRLESSSSS
B8: il2ra_site2_3nfp_sap_13_mot_HHH_b2_07946_000000046_0001_20_36_H_._HHH_b2_01751_0001_0000100004_0000001_0_0001 (protein)
chain: SSSSNEYVKAALELLRLALEENDDEQFERLVEMIRLAVETAEDEEAREILERLEEEFERRLSSSS
B9: il2ra_site1_3nfp_sap_14_mot_HHH_b1_03429_af2_000000091_0001_1_19_H_._HHH_b2_06817_0001_0000200013_0000001_0_0001_af2pred_0001_af2pred_swapped (protein)
chain: SVEEVLEELKRDGNAAVRRLAEDVEAALKLGIPPEEIIRALKRAAEQTKDPKVREVAELLEQLLK
B10: il2ra_site2_2erj_normal_mot_HHH_b1_05749_af2_000000086_0001_23_39_H_._HHH_b2_06624_af2_0001_0000700026_0000001_0 (protein)
chain: SSSSSDQELLEFIYKLAAELGASAEEVQEAFERATELLRRGVSEEEIEEILREFLEELRHSSSSS
B11: il2ra_site2_3nfp_normal_mot_HHH_b1_06589_000000230_0001_37_50_H_._HHH_b1_03508_0001_0000300009_0000001_0_af2pred_0001_af2pred (protein)
chain: SSSSDEEELEELLERIEEAVRRGDHELFEELARRLLELIRELGDVHMLIRLAELKKRFEQGSSSS
B12: il2ra_site2_2erj_sap_22_mot_HHH_b2_05804_000000098_0001_44_58_H_._HHH_b2_06227_af2_0001_0000100001_0000001_0_0001_af2pred_0001_af2pred (protein)
chain: SSSSDQEVRELIEEAEEAIRRNDPQAVFRLNREAQRLAEELNDPELRKFVAELARVAAEFLSSSS
B13: il2ra_site1_3nfp_sap_8_mot_1dfc56a8f07a39e834a69883c800ee5d_0001_1_af2_000000182_0001_1_15_H_._ems_3hC_1146_0001_0001800033_0000001_0_0001_af2pred_0001_af2pred_ … (protein)
chain: SEEEELKRAVEQLAKRFGVPHVEVETENGKYHVTIEGDNREAKLVAKLIEEFAKQRNIDLTVEVE
B14: il2ra_site2_2erj_normal_mot_HHH_b1_03107_000000098_0001_39_52_H_._HHH_b1_01890_0001_0000200005_0000001_0 (protein)
chain: SSSSDALEIAAELSVEALELFKNGNPEEARRVIEEAEEEIKELGNEAALRYLEFARRDLERSSSS
B15: il2ra_site1_1z92_sap_13_mot_HHH_b2_05648_af2_000000135_0001_42_57_H_._94f557e17ac761c6798c16b9e748a37e_0001_1_0001_0000200019_0000001_0_0001_af2pred_0001_af2pre … (protein)
chain: SEEERLEELLEELGVPPEDIRALRKDFKRAQEAGIPPEVVVKALIRILRRKGDPLAEEALELFLK
B16: il2ra_site2_3nfp_sap_32_mot_HHH_b1_01767_000000280_0001_1_18_H_._1426d49a9706e560ad12cebec5766a74_0001_1_0001_0000100004_0000001_0_0001 (protein)
chain: SSSSDKSEEYLKVAVEIIRAALKEGDPEVAERLLKVLKAAAESANDEEVEELVRELEELLSSSSS
B17: il2ra_site1_2b5i_sap_18_mot_HHH_b1_01419_af2_000000080_0001_42_53_H_._HHH_b1_01280_af2_0001_0000300024_0000001_0_0001 (protein)
chain: SSSSSDEADEEVQRLFAEASHIPDPEEAVKVLEEALRLAEEEGDENIRRDLEFMIERFRGSSSSS
B18: il2ra_site1_2b5i_sap_7_mot_HHH_b1_00095_000000042_0001_1_14_H_._fa9d0efb6cdfa3d48f532c1d34b61b18_0001_af2_0001_0000100002_0000001_0_0001 (protein)
chain: SSSSSDLEEEASELFHEASHLWRKGDPRARELLEEAIELARELGDEELLRQLERAYRIFGSSSSS
B19: il2ra_site1_2b5i_normal_mot_HHH_b1_02476_af2_000000255_0001_1_19_H_._HHH_b2_05139_af2_0001_0000300024_0000001_0_af2pred_dldesign_0_af2pred (protein)
chain: SSSSDEVYEEIDRLYKEALELKKAGKKEEAMKLLDKAIELAKKANDEKTLAQLEKLKTLLSSSSS
B20: il2ra_site1_3nfp_normal_mot_HHH_b1_05070_af2_000000282_0001_43_57_H_._HHH_b1_08541_0001_0000400027_0000001_0 (protein)
chain: SSSSSEEEREARELAQEIYELMKEGDEEEAKELLERLRELVKELGDKVARYFVKMLEEILHSSSS
B21: il2ra_site2_2erj_sap_25_mot_HHH_b2_01204_af2_000000056_0001_19_34_H_._HHH_b2_03606_0001_0000300020_0000001_0_0001 (protein)
chain: SSSSSSELEELLEEAKQLLEEGNPEEAERVLLEAFELAAEKGDHEVAAAVIELIARIAKSSSSSS
B22: il2ra_site2_3nfp_normal_mot_HHH_b1_06589_000000230_0001_37_50_H_._HHH_b1_03283_af2_0001_0000400020_0000001_1 (protein)
chain: SSSDHHEAYALLADALFLAYQNNNEELLQKLARLLHELYEHKDPELAEELRRLAEEVEKELSSSS
B23: il2ra_site1_2b5i_sap_13_mot_HHH_b2_00318_000000002_0001_42_56_H_._ac21b6101d1b909bc51415b35f28fc50_0001_0001_0000100012_0000001_0_0001_af2pred_0001_af2pred_1 (protein)
chain: SSSSDEKEEEVQELAKEAIEKLEKNGSRLRAEALRRMLEELEKEGDPRVLEQLEHLVKRILSSSS
B24: il2ra_site2_2erj_normal_mot_HHH_b1_06697_000000025_0001_41_54_H_._HHH_b2_03722_0001_0000300007_0000001_0_af2pred_0001_1_af2pred_swapped (protein)
chain: SSSSSDKEEVEERVREILEEAEQVRDPREALKILEKADRLASENNNEEALELIHEVLQRLSSSSS

molecular target: il2ra, P01589; test: yeast display titration

Apparent Kd, inactive:
B1 no binding seen
B2 no binding seen
B3 no binding seen
B4 no binding seen
B5 no binding seen
B6 no binding seen
B7 no binding seen
B8 no binding seen
B9 no binding seen
B10 no binding seen
B11 no binding seen
B12 no binding seen
B13 no binding seen
B14 no binding seen
B15 no binding seen
B16 no binding seen
B17 no binding seen
B18 no binding seen
B19 no binding seen
B20 > 670 nM
B21 no binding seen
B22 no binding seen
B23 no binding seen
B24 no binding seen

Pulled one by one from the list above, 2 records:
Apparent Kd, inactive:
B20 > 670 nM
B1 no binding seen
